According to PMC10866537:
No constants are given. Whether binding was seen depends on the method and setting. Some entries that bind do so weakly or less than the wild type.

Protein sequences, listed by entry. Tags and fused reporters are not part of them. Residues count along the entry.
UniProt P41273: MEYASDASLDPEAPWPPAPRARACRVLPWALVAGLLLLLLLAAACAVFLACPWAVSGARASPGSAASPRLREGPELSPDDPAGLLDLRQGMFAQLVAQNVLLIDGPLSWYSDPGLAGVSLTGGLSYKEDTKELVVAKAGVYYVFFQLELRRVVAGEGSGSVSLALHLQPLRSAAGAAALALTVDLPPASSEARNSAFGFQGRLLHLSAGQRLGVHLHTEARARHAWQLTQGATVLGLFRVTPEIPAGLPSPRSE
UniProt P34741, residues 19-201: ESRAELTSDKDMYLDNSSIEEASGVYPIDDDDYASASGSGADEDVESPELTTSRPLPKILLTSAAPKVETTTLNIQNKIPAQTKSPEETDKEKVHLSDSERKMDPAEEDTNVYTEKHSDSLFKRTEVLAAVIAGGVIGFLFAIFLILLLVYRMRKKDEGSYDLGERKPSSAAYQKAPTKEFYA
UniProt Q07011, residues 24-189: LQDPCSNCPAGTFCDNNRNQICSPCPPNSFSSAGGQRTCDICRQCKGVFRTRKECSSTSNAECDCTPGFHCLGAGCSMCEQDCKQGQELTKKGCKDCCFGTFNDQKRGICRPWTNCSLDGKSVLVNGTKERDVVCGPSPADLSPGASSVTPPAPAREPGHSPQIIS
UniProt P16410, residues 38-162: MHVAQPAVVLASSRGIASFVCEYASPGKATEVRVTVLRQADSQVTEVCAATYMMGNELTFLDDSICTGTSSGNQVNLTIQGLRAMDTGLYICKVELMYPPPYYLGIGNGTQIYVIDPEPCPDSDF

What was measured:
[1] = target: 4-1BB ligand on 293-VM-14.7 activator cells (gene switched on by gRNA) (human (endogenous in HEK293)) (UniProt P41273); assay: pooled CRISPRa screen, serial magnetic-activated cell sorting (MACS) with bait-coated beads; biotinylated bait ED on streptavidin microbeads; library-transduced 293-VM-14.7 activator cells, 4°C 1.5 h, PBS/0.5% BSA; up to four rounds; read by flow cytometry with antibodies and deep sequencing of gRNAs; original and new stringent gRNA library; only the binder purified
[2] = target: T1, siglec-4 on 293-VM-14.7 activator cells (gene switched on by gRNA) (human (endogenous in HEK293)) (UniProt P20916); assay: as above
T1 sequence: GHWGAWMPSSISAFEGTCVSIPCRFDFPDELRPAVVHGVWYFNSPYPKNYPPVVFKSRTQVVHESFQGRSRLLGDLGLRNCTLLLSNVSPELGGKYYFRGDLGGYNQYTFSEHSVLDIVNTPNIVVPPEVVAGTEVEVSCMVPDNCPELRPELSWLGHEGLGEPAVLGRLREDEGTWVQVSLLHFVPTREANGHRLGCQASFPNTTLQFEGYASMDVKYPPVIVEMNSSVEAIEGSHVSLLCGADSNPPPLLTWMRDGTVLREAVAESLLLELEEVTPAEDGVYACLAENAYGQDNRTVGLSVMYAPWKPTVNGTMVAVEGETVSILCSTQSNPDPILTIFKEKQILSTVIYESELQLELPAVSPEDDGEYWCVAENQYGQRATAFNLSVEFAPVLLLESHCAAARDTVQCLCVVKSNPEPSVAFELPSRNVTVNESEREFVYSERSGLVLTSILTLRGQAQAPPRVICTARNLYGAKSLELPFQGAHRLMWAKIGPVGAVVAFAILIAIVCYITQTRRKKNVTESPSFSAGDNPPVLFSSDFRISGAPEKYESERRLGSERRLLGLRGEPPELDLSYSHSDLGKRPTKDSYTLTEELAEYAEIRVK

[3] = target: T2, human syndecan-1 expressed from a plasmid in HEK293 activator cells (human) (UniProt P18827); assay: condition: 1 μg of biotinylated CTLA4 protein/5 × 10^5 cells in 100 μl; flow cytometry on cells; 1 μg biotinylated CTLA4 protein per 5 × 10^5 transfected HEK293 activator cells in 100 μl PBS/BSA, then APC-streptavidin; only the binder purified
T2 sequence: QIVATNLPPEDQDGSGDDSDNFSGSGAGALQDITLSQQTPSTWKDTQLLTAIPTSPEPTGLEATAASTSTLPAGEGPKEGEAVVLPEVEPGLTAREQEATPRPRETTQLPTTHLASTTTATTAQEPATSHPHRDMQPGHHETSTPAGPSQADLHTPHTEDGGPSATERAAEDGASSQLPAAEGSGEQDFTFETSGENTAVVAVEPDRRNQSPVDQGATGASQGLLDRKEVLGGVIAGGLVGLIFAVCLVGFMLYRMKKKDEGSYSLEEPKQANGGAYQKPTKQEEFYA

[4] = target: human syndecan-2 expressed from a plasmid in HEK293 activator cells (human) (UniProt P34741); assay: as above

binding [1]	binding [2]	binding [3]	binding [4]	Substance
binds	binds	–	–	biotinylated 4-1BB ectodomain (4-1BB-CD4d3+4-bio-HIS) (from UniProt Q07011 24-189) (domain or fragment)
–	–	no binding	no binding	biotinylated CTLA4 ectodomain (CTLA4-CD4d3+4-bio-HIS) (from UniProt P16410-1 38-162) (domain or fragment)
